Assay results published in the supplement of paper PMC10849652.
The list shows a part of the results.

The chains behind the UniProt entries cited, without tags or fusion partners. Where a name states a change or a piece, a line headed by the entry shows the natural chain unless it says otherwise.
UniProt Q9UHB4: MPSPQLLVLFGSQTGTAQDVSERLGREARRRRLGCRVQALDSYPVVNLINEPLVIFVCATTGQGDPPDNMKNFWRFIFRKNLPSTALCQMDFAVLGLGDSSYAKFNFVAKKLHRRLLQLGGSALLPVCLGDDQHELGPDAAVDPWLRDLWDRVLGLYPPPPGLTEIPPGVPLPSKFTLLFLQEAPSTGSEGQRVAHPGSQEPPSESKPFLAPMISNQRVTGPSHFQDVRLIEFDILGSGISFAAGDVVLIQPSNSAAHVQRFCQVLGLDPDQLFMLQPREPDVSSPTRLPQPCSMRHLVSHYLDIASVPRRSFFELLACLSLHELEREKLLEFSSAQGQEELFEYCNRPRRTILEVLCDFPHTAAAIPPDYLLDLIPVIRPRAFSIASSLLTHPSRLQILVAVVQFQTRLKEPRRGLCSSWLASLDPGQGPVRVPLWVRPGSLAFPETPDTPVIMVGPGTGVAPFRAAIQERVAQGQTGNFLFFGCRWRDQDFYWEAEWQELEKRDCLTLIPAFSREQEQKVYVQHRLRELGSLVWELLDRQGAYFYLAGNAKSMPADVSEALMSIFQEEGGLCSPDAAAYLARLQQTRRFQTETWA
UniProt Q9BRA0: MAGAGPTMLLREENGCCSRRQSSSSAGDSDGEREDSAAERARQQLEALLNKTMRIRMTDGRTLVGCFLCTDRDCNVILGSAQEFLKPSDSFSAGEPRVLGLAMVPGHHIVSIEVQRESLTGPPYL
UniProt O43639, whole entry, looked up: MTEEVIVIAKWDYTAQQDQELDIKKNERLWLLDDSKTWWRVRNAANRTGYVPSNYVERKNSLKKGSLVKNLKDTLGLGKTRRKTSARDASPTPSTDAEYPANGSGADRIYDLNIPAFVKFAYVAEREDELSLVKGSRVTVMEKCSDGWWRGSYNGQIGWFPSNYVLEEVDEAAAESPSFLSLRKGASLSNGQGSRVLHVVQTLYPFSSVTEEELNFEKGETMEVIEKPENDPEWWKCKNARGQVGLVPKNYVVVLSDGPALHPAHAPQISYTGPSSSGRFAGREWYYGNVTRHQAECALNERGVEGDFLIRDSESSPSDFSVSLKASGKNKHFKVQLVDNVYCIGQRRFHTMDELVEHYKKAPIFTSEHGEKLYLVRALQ
UniProt O75113: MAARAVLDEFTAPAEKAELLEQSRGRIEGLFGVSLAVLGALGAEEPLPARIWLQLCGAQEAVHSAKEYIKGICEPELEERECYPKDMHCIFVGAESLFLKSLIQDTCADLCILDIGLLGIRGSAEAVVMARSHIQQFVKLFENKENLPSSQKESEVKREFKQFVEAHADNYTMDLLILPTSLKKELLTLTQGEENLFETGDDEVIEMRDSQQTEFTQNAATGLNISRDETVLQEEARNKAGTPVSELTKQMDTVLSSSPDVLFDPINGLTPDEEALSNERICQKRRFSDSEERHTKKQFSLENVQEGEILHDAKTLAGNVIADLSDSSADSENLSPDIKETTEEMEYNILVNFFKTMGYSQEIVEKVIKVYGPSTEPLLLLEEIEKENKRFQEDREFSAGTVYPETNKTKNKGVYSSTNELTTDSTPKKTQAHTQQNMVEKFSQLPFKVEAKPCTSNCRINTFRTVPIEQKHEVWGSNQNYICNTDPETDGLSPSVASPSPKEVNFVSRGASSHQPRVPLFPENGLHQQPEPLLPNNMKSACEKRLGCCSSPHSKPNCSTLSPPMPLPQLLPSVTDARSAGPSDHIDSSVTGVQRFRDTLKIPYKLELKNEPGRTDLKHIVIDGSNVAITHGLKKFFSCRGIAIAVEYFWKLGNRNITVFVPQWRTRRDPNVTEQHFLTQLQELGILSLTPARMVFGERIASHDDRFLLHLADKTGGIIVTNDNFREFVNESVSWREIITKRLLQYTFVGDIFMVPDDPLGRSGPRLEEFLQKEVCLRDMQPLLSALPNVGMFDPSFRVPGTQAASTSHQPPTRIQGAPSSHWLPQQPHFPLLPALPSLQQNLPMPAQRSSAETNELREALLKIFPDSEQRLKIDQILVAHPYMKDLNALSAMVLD
UniProt O95169, whole entry, looked up: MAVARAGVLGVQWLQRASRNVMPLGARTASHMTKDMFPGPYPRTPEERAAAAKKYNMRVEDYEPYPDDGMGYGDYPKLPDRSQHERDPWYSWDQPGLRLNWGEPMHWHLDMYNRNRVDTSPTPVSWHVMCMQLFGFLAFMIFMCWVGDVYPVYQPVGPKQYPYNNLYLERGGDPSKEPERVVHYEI
UniProt Q7L592: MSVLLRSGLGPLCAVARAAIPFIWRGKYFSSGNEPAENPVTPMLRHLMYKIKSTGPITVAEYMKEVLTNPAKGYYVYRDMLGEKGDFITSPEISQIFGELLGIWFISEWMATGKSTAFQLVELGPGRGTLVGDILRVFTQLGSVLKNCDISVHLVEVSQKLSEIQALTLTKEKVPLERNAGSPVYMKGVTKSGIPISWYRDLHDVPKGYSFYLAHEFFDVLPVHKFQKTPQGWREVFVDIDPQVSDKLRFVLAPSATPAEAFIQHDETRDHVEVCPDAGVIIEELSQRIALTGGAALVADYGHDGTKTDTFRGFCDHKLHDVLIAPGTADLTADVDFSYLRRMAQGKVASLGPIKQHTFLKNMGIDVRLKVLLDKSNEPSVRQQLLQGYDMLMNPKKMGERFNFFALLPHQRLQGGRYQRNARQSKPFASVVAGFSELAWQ
UniProt Q86Y39, whole entry, looked up: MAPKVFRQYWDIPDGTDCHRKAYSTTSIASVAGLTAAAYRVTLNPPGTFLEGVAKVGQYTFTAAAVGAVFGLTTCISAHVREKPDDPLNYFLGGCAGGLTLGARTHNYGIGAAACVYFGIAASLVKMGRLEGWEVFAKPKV
UniProt Q92692, whole entry, looked up: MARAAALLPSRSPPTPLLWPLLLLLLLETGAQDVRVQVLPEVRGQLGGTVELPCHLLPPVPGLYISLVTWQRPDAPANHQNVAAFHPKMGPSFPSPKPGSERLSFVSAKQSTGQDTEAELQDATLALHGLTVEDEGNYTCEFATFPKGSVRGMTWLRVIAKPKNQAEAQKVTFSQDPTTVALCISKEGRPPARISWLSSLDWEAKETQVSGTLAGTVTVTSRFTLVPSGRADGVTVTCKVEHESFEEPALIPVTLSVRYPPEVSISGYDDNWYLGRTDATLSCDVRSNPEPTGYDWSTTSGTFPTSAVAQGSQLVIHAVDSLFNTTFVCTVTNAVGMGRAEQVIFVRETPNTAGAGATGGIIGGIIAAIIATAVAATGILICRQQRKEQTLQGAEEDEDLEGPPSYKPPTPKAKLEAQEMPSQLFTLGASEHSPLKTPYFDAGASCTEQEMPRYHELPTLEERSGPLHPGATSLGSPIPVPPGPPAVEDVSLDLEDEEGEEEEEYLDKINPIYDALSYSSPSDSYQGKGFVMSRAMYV
UniProt Q9Y6M9, whole entry, looked up: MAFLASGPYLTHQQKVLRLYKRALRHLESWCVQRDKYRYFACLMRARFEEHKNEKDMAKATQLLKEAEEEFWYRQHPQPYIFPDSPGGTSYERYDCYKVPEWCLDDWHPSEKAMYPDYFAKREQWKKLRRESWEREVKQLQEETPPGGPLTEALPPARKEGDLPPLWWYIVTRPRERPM
UniProt P56181: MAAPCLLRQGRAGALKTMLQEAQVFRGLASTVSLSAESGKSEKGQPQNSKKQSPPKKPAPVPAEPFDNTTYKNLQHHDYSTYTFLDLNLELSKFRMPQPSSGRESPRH
UniProt O75376, whole entry, looked up: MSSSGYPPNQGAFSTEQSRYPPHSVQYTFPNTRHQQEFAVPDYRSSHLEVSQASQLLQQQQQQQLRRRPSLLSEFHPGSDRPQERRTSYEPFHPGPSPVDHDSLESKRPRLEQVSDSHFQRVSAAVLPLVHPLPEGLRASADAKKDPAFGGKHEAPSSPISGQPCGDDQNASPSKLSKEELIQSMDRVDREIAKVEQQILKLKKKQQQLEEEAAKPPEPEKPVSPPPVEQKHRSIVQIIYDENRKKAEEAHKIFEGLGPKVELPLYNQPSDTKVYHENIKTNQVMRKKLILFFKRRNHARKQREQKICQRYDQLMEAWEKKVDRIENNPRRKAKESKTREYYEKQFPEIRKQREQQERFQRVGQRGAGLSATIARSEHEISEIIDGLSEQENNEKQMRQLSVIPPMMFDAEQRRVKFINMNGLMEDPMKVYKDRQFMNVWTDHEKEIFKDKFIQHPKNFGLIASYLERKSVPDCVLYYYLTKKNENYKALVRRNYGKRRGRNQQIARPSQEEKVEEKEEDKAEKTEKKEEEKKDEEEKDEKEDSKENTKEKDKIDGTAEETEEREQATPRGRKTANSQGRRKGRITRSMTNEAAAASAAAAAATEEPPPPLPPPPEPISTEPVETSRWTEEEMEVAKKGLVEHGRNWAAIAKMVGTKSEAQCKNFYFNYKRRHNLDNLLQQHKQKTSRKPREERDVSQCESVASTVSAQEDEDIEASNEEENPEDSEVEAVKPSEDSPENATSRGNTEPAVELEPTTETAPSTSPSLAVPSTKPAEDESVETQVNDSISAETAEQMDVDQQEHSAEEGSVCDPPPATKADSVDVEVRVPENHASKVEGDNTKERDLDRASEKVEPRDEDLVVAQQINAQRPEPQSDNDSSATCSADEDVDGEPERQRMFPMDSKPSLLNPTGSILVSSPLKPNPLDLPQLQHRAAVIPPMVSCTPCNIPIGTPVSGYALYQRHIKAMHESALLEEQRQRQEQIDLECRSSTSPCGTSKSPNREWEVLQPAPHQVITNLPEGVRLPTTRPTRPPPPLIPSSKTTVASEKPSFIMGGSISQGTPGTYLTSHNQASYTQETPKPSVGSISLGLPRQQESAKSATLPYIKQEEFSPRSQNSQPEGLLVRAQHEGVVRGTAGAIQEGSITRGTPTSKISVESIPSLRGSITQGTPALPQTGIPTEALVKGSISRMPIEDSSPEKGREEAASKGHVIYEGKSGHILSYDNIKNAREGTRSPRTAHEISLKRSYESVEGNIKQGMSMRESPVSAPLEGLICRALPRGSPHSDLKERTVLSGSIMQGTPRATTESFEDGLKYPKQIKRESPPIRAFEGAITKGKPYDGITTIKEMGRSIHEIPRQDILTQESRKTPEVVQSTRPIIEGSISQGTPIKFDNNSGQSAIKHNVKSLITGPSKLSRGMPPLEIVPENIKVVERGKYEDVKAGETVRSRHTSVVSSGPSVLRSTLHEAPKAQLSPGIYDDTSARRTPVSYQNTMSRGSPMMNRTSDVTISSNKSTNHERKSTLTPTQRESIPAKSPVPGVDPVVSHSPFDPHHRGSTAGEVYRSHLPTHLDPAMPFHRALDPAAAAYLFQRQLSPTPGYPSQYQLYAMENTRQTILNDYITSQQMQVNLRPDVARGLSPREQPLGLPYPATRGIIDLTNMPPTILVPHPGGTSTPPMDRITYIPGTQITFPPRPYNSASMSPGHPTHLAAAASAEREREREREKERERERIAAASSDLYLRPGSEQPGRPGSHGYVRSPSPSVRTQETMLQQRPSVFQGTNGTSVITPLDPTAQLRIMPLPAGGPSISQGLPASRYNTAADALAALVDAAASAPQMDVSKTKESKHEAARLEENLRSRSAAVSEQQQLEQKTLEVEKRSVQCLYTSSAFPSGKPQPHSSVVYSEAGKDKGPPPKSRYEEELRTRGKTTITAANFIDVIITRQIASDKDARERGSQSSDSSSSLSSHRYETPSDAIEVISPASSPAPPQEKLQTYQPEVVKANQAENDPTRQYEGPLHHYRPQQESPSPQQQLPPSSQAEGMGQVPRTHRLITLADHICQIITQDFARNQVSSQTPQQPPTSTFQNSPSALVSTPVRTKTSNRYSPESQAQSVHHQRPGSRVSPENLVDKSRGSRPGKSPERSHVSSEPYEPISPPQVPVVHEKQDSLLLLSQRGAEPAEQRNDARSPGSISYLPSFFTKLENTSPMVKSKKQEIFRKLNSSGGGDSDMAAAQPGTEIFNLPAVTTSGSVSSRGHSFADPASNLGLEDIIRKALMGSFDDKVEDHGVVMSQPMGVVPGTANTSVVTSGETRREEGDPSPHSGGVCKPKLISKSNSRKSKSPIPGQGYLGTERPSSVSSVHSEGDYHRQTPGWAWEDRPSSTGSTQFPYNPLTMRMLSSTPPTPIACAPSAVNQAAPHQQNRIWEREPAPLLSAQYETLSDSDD
UniProt Q16795, whole entry, looked up: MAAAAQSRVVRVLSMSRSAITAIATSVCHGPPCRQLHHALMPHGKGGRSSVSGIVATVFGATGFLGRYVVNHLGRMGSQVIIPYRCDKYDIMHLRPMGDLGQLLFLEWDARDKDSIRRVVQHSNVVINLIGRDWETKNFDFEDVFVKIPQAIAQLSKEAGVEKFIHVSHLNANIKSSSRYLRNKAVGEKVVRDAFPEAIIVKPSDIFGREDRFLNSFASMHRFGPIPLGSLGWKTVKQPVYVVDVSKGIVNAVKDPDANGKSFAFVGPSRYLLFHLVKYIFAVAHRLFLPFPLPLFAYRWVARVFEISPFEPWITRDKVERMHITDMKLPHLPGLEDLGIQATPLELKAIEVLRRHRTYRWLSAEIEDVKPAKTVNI

Legend:
Test in all cases: log2 fold change, soluble protein after heating vs DMSO (PISA); higher = thermal stabilisation; K562 cells, 10 uM, 30 min; active = over 0.2 and 3.5 SD of the protein, either way, in both replicates (recomputed)
[1] = compound: CC[C@@H]1C(=O)N(C)c2cnc(Nc3ccc(C(=O)NC4CCN(C)CC4)cc3OC)nc2N1C1CCCC1
In short: (§1)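 K562 cells at 2×10^6 cells/mL were given 10 μM compound for 30 min. Aliquots then went through 3 min of heating across 48°C-58°C, were pooled, and were extracted in PBS with 0.5% NP-40 at 4°C, and the supernatant after 21,000xg for 90 min was quantified by TMTpro 16plex LC-MS/MS with channel sums equalised. Thermal stability relative to control samples, from duplicates, is given as log2 fold change.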

[2] = compound: CC[C@@H]1C(=O)N(C)c2cnc(Nc3ccc(C(=O)N[C@H]4CC[C@H](N5CCN(CC6CC6)CC5)CC4)cc3OC)nc2N1C(C)C [volasertib]
In short: as §1

[3] = compound: CC[C@H](C)N1C=C(C2=C(C=C(C=C21)C3=CN=C(C=C3)N4CCNCC4)C(=O)NCC5=C(C=C(NC5=O)C)C)C
In short: as §1

[4] = compound: CC[C@H](C)[C@@H](C(=O)N[C@@H]([C@@H](C)O)C(=O)N[C@@H](CC(C)C)C(=O)[C@]1(CO1)C)NC(=O)[C@H]([C@@H](C)CC)N(C)C(=O)C [epoxomicin]
In short: as §1

[5] = compound: CCn1c(C(=O)N(C2CC2)C2CC2)cc2c3c(ncn3C)c(Nc3cc(C)n(C)n3)nc21
In short: as §1

[6] = compound: CCn1cc(-c2ccnc3[nH]c(-c4cccc(CN(C)C)c4)cc23)c(-c2ccc(NC(=O)N(C)C)cc2)n1
In short: as §1

[7] = compound: CN(C)CC(=O)Nc1ccc2[nH]c(=O)c3ccccc3c2c1
In short: as §1

[8] = compound: CN(CCOC1=CC=C(C=C1)C[C@H]2C(=O)NC(=O)S2)C3=CC=CC=N3 (racemic) [rosiglitazone]
In short: as §1

[9] = compound: CN1C2=C(C3=C1C(=O)N(N=C3)CC4=CC(=CC=C4)N)SC(=C2)S(=O)C
In short: as §1

[10] = compound: CN1CCC(CNc2ccc3ncc(-c4cccc(OC(F)(F)F)c4)n3n2)CC1
In short: as §1

[11] = compound: CN1CCN(CCOc2cc(OC3CCOCC3)c3c(Nc4c(Cl)ccc5c4OCO5)ncnc3c2)CC1 [saracatinib]
In short: as §1

[12] = compound: CN1CCN(c2nc(C3=C(c4c[nH]c5ccccc45)C(=O)NC3=O)c3ccccc3n2)CC1 [sotrastaurin]
In short: as §1

[13] = compound: CN1CC[C@H](c2c(O)cc(O)c3c(=O)cc(-c4ccccc4Cl)oc23)[C@H](O)C1 [alvocidib]
In short: as §1

[14] = compound: CN1CCc2c(c3ccccc3n2Cc2ccc(C(=O)NO)cc2)C1 [Tubastatin A]
In short: as §1

[15] = compound: CNC(=O)C1=CC=CC=C1NC2=NC(=NC=C2Cl)NC3=C(C=C(C=C3)N4CCOCC4)OC
In short: as §1

[16] = compound: CNC(=O)c1ccc(Nc2ncc(C(F)(F)F)c(NCc3nccnc3N(C)S(C)(=O)=O)n2)cc1 [defactinib]
In short: as §1

[17] = compound: CNCc1ccc(-c2[nH]c3cc(F)cc4c3c2CCNC4=O)cc1 [rucaparib]
In short: as §1

[18] = compound: CNc1nc(-c2ccc3c(N)n[nH]c3c2)cc(N2C[C@@H](C(=O)NC3CCCCC3)CC[C@H]2C)n1
In short: as §1

[19] = compound: COC(=O)N[C@@H](C)CNc1nccc(-c2cn(C(C)C)nc2-c2cc(Cl)cc(NS(C)(=O)=O)c2F)n1 [encorafenib]
In short: as §1

[20] = compound: COC(=O)[C@H](CCSC)NC(=O)C1=C(C=C(C=C1)NC[C@H](CS)N)C2=CC=CC=C2
In short: as §1

Row | Target | log2 fold change [1] | log2 fold change [2] | log2 fold change [3] | log2 fold change [4] | log2 fold change [5] | log2 fold change [6] | log2 fold change [7] | log2 fold change [8] | log2 fold change [9] | log2 fold change [10] | log2 fold change [11] | log2 fold change [12] | log2 fold change [13] | log2 fold change [14] | log2 fold change [15] | log2 fold change [16] | log2 fold change [17] | log2 fold change [18] | log2 fold change [19] | log2 fold change [20]
1 | NDOR1 isoform 2 (UniProt Q9UHB4) | inactive: -0.03 | inactive: -0.055 | inactive: 0.019 | inactive: 0.12 | inactive: -0.063 | inactive: -0.103 | inactive: -0.032 | inactive: 0.014 | inactive: -0.005 | inactive: 0.046 | inactive: 0.054 | inactive: 0.038 | inactive: -0.008 | inactive: 0.234 | inactive: -0.057 | inactive: -0.044 | inactive: 0.154 | inactive: -0.035 | inactive: 0.001 | inactive: -0.02
2 | NAA38 isoform 2 (UniProt Q9BRA0) | inactive: -0.045 | inactive: -0.017 | inactive: -0.025 | inactive: 0.029 | active: 0.265 | inactive: -0.127 | inactive: -0.026 |  | inactive: -0.095 | inactive: 0.064 | inactive: -0.02 | inactive: 0.009 |  | inactive: 0.081 | inactive: -0.044 | inactive: -0.101 | inactive: 0.023 | inactive: 0.044 | inactive: 0.022 | inactive: -0.058
3 | NCOA3 (UniProt Q9Y6Q9) | inactive: -0.157 | inactive: -0.317 | inactive: 0.013 | inactive: -0.138 | inactive: -0.123 | inactive: -0.062 | inactive: -0.005 | inactive: -0.06 |  | inactive: 0.031 |  | inactive: -0.157 | inactive: -0.137 | inactive: -0.083 | inactive: 0.029 | inactive: -0.206 | inactive: -0.053 |  | inactive: -0.064 | inactive: 0.013
4 | NCK2 (UniProt O43639) | inactive: -0.081 | inactive: 0.062 | inactive: 0.099 | inactive: 0.121 |  | inactive: -0.047 | inactive: 0.054 | inactive: 0.12 | inactive: -0.054 | inactive: -0.282 | inactive: -0.056 | inactive: 0 | inactive: -0.043 | inactive: 0.191 |  | inactive: -0.227 | inactive: 0.125 | inactive: 0.017 | inactive: 0.055 | inactive: -0.32
5 | N4BP1 (UniProt O75113) | inactive: -0.072 | inactive: -0.177 | inactive: 0.097 | inactive: -0.286 | inactive: -0.022 | inactive: -0.131 | inactive: 0 | inactive: 0.025 | inactive: -0.02 | inactive: -0.053 | inactive: 0.03 | inactive: -0.083 | inactive: -0.041 | inactive: 0.131 | inactive: 0.111 | inactive: -0.089 | inactive: 0.004 | inactive: 0.026 | inactive: -0.034 | inactive: -0.113
6 | NDUFB8 (UniProt O95169) | inactive: 0.008 | inactive: -0.016 | inactive: -0.036 | inactive: 0.074 |  | inactive: 0.055 | inactive: 0.016 |  | inactive: 0 | inactive: 0.097 | inactive: -0.064 | inactive: 0.071 |  | inactive: -0.016 | inactive: 0.002 | inactive: -0.037 | inactive: 0.003 | inactive: -0.073 | inactive: 0.016 | inactive: -0.048
7 | NDUFAF7 (UniProt Q7L592) | inactive: -0.008 | inactive: 0.121 | inactive: -0.014 | inactive: 0.043 | inactive: -0.084 | inactive: 0.079 | inactive: 0.025 | inactive: 0.075 |  | inactive: -0.251 |  | inactive: 0.069 | inactive: -0.142 | inactive: 0.037 | inactive: -0.038 | inactive: -0.115 | inactive: 0.055 |  | inactive: 0.069 | inactive: -0.025
8 | NDUFA11 (UniProt Q86Y39) | inactive: 0.049 | inactive: 0.066 | inactive: -0.035 | inactive: -0.051 | inactive: 0.005 | inactive: -0.031 | inactive: 0.015 | inactive: -0.032 | inactive: 0.006 | inactive: 0.028 | inactive: 0.07 | inactive: 0.073 | inactive: -0.026 | inactive: -0.079 | inactive: 0.02 | inactive: -0.068 | inactive: -0.098 | inactive: -0.018 | inactive: 0 | inactive: -0.006
9 | NCAPD3 (UniProt P42695) | inactive: 0.004 | inactive: -0.146 | inactive: 0.021 | inactive: 0.009 | inactive: 0.018 | inactive: 0.047 | inactive: -0.056 | inactive: 0.04 | inactive: 0 | inactive: -0.085 | inactive: -0.078 | inactive: -0.07 | inactive: 0.001 | inactive: 0.05 | inactive: -0.022 | inactive: 0.025 | inactive: 0.084 | inactive: -0.005 | inactive: 0.066 | inactive: 0.097
10 | NECTIN2 (UniProt Q92692) | inactive: 0.071 | inactive: 0.029 | inactive: -0.003 | inactive: 0.02 |  | inactive: -0.044 | inactive: -0.028 |  | inactive: -0.063 | inactive: 0.138 | inactive: 0.021 | inactive: 0.047 |  | inactive: -0.013 | inactive: -0.056 | inactive: -0.013 | inactive: -0.051 | inactive: 0.049 | inactive: -0.024 | inactive: 0.063
11 | NADSYN1 (UniProt Q6IA69) | inactive: 0.154 | inactive: 0.073 | inactive: 0.008 | inactive: 0.005 | inactive: 0.007 | inactive: 0.012 | inactive: -0.006 | inactive: -0.025 | inactive: -0.024 | inactive: 0.042 | inactive: 0.12 | inactive: 0.024 | inactive: -0.032 | inactive: -0.059 | inactive: -0.004 | inactive: -0.036 | inactive: 0.235 | inactive: 0.007 | inactive: -0.043 | inactive: 0.009
12 | NBAS (UniProt A2RRP1) | inactive: 0.032 | inactive: -0.366 | inactive: 0.159 | inactive: -0.13 | inactive: -0.187 | inactive: 0.066 | inactive: 0.044 | inactive: 0.05 | inactive: 0.148 | inactive: 0.011 | inactive: -0.169 | inactive: -0.193 | inactive: 0.146 | inactive: 0.148 | inactive: 0.008 | inactive: 0.109 | inactive: 0.448 | inactive: 0.053 | inactive: 0.304 | inactive: -0.175
13 | NDUFB9 (UniProt Q9Y6M9) | inactive: -0.021 | inactive: -0.012 | inactive: -0.007 | inactive: -0.008 | inactive: -0.024 | inactive: -0.008 | inactive: 0.033 | inactive: -0.003 | inactive: -0.081 | inactive: -0.02 | inactive: 0.037 | inactive: 0.061 | inactive: -0.044 | inactive: -0.011 | inactive: 0.04 | inactive: -0.026 | inactive: 0.019 | inactive: -0.012 | inactive: -0.015 | inactive: 0.015
14 | MYO9B (UniProt Q13459) | inactive: 0.127 | inactive: -0.066 | inactive: 0.078 | inactive: -0.011 | inactive: -0.034 | inactive: 0.033 | inactive: 0.056 | inactive: 0 | inactive: 0.082 | inactive: -0.047 | inactive: -0.082 | inactive: -0.136 | inactive: 0.048 | inactive: 0.079 | inactive: -0.034 | inactive: -0.003 | inactive: 0.282 | inactive: 0.054 | inactive: 0.208 | inactive: -0.015
15 | NDUFV3 (UniProt P56181) | inactive: 0.008 | inactive: -0.001 | inactive: -0.014 | inactive: 0.045 | inactive: 0.021 |  | inactive: 0.04 | inactive: 0.009 | inactive: 0.135 |  | inactive: -0.255 | inactive: 0.035 | inactive: -0.122 | inactive: 0.012 | inactive: 0.147 | inactive: 0.024 | inactive: -0.062 | inactive: -0.102 | inactive: -0.008 | inactive: -0.035
16 | NCOR1 (UniProt O75376) | inactive: -0.034 | inactive: -0.021 | inactive: 0.142 | inactive: 0.07 |  | inactive: 0.046 | inactive: 0.048 |  | inactive: 0.033 | inactive: -0.045 | inactive: 0.074 | inactive: -0.094 |  | inactive: -0.009 | inactive: -0.041 | inactive: -0.113 | inactive: 0.012 | inactive: -0.02 | inactive: 0 | inactive: 0.007
17 | NDUFA9 (UniProt Q16795) | inactive: -0.082 | active: -0.26 | inactive: 0.073 | inactive: 0.03 |  | inactive: -0.053 | inactive: 0.035 |  | inactive: -0.017 | active: -0.367 | inactive: -0.003 | inactive: -0.008 |  | inactive: -0.013 | inactive: -0.034 | inactive: -0.011 | inactive: -0.038 | inactive: 0.036 | inactive: 0.048 | inactive: -0.004

Quoted from the listing (2 entries):
Row | Target | log2 fold change [1] | log2 fold change [2] | log2 fold change [3] | log2 fold change [4] | log2 fold change [5] | log2 fold change [6] | log2 fold change [7] | log2 fold change [8] | log2 fold change [9] | log2 fold change [10] | log2 fold change [11] | log2 fold change [12] | log2 fold change [13] | log2 fold change [14] | log2 fold change [15] | log2 fold change [16] | log2 fold change [17] | log2 fold change [18] | log2 fold change [19] | log2 fold change [20]
15 | NDUFV3 (UniProt P56181) | inactive: 0.008 | inactive: -0.001 | inactive: -0.014 | inactive: 0.045 | inactive: 0.021 |  | inactive: 0.04 | inactive: 0.009 | inactive: 0.135 |  | inactive: -0.255 | inactive: 0.035 | inactive: -0.122 | inactive: 0.012 | inactive: 0.147 | inactive: 0.024 | inactive: -0.062 | inactive: -0.102 | inactive: -0.008 | inactive: -0.035
16 | NCOR1 (UniProt O75376) | inactive: -0.034 | inactive: -0.021 | inactive: 0.142 | inactive: 0.07 |  | inactive: 0.046 | inactive: 0.048 |  | inactive: 0.033 | inactive: -0.045 | inactive: 0.074 | inactive: -0.094 |  | inactive: -0.009 | inactive: -0.041 | inactive: -0.113 | inactive: 0.012 | inactive: -0.02 | inactive: 0 | inactive: 0.007
